The structures given here were assigned with low confidence; some may be wrong.
Molecular target: mutant form of the human GPR119 receptor (Homo sapiens, UniProt Q8TDV5, S329A/T327A)
Experiment: LANCE cAMP-384 assay in HEK293 cells stably expressing a mutant form of the human GPR119 receptor
Conditions: cAMP accumulation, GPR119 stable HEK293 cells, LANCE kit, 20 min at 37° C.
Description: Quantitative detection of cAMP accumulation from cells expressing human GPR119 receptor is achieved using Perkin Elmer's LANCE cAMP-384 Kit (Cat#AD0264) according to the manufacturer's protocol. Briefly, HEK293 cells stably expressing a mutant form of the human GPR119 receptor as assay tool (Methionine 1 replaced with the amino acid sequence […] , and T327 & S329 changed to alanines; SEQ ID No. 1) are grown to 50-70% confluency in cell culture media (DMEM, 10% heat inactivated Fetal Bovine Serum, 50 I.U./mL penicillin, 50 μg/mL streptomycin, 10 mM HEPES, 20 μg/mL G418 Sulfate). On the day of the assay, GPR119 stable HEK293 cells are lifted from the tissue culture plate and 1000 cells/well are incubated along with various concentrations of test compounds for 20 min at 37° C. Detection Buffer (50 mM HEPES, 10 mM calcium chloride, 0.35% Triton X-100, 1 mg/mL BSA) containing cAMP-specific antibody is then added to all wells and allowed to equilibrate in the dark for 10 minutes at room temperature. Upon equilibration, Detection Buffer containing europium-labeled cAMP tracer complex is added to all wells and allowed to react for 1 hour at room temperature. After 1 hour, bound europium-labeled cAMP tracer is measured using a Perkin Elmer Envision plate reader. The quantity of cAMP generated in each well is derived from a standard curve. […]

Chains of the proteins cited; added tags and fusions are not shown. A line that says so, or that is headed by a name, gives the form on record, which may keep a tag or linker. Residues count along the entry.
UniProt Q8TDV5, 2-335 with tags or gaps S329A/T327A limits assumed: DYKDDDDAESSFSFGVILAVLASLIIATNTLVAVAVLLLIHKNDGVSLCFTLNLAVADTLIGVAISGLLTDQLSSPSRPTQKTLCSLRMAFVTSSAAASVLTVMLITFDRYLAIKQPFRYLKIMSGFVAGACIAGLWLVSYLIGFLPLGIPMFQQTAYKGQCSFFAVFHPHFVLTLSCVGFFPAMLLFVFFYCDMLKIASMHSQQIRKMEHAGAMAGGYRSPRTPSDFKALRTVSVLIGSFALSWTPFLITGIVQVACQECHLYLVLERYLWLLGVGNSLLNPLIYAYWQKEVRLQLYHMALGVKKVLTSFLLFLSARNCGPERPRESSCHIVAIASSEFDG

Cc1nccn1-c1cnc(C(=O)N(C2CC2)C2CCN(c3ncc(C(F)(F)F)cc3F)CC2)cn1
EC50: 16 nM

Cc1nccn1-c1ncc(C(=O)N(C2CC2)[C@@H]2CCN(c3ccc(C(F)(F)F)cn3)C[C@@H]2F)cn1 (single isomer, unassigned)
EC50: 6 nM
